# According to PubChem BioAssay AID328 (DTP/NCI, 2004):
# The list shows only some results of the screen, not a fair sample: it gathers tests that were run many times, whatever their T/C, doses with no T/C, and many T/C values between a quarter and a half above the control. Further doses and runs are listed elsewhere. T/C is the treated group as % of the vehicle group. Some doses have a count of surviving animals in place of a T/C: the source holds a T/C of zero for them, seemingly a mark for toxic or unscored doses. Some survivor counts are full or nearly so, which does not show that the dose was tolerated: the source hardly ever lists a survival T/C far under the control, and the zero likely stands for such cases as well. Survivors were counted at the toxicity check, usually on the fifth day, unless a day is given; later deaths do not show. Schedule codes are those of the source, taken here to give the interval after Q, in days (D) or hours (H), and the number of doses after X. Some entries hold several experiments; their values stand side by side, smallest first. Where survival is the endpoint, the PubChem record calls one and a half times the control and up active, and a quarter to a half above the control has no call in these data; cut-offs in other NCI protocols can differ. Non-standard residues stand in square brackets, D forms with d. Residues, ends and D or L forms follow the SMILES beside them. ξ: configuration not given here. ξLac(3-iPr) = CC(C)CC(O)C(=O)O; NMeV = CN[CH](C(=O)O)C(C)C; NMeA = CN[CH](C)C(=O)O; βAla = NCCC(=O)O
# Test system: BDF1 mice, P388 leukemia ip, median survival T/C
# Experiment: NCI In Vivo Anticancer Drug Screen. Data for tumor model P388 Leukemia (intraperitoneal) in B6D2F1 (BDF1) mice
# Settings: T/C endpoint: median survival time, higher T/C = longer survival
# Procedure, shortened: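 Antitumour effect was judged in vivo: survival in drug-treated mice, normalised to that of vehicle-dosed controls, gives the reported T/C.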
# [1] = dose: 100.0 mg/kg/injection, schedule: Q01DX005 (ip), vehicle: saline with Tween-80
# [2] = dose: 200.0 mg/kg/injection, schedule: Q01DX005 (ip), vehicle: saline with Tween-80
# [3] = dose: 100.0 mg/kg/injection, schedule: Q01DX009 (ip), vehicle: saline with Tween-80
# [4] = dose: 200.0 mg/kg/injection, schedule: Q04DX003 (ip), vehicle: saline with Tween-80
# [5] = dose: 400.0 mg/kg/injection, schedule: Q04DX003 (ip), vehicle: saline with Tween-80
# [6] = dose: 200.0 mg/kg/injection, schedule: Q01DX009 (ip), vehicle: Klucel (hydroxypropylcellulose) (HPC)
# [7] = dose: 50.0 mg/kg/injection, schedule: Q01DX009 (ip), vehicle: saline with Tween-80
# [8] = dose: 100.0 mg/kg/injection, schedule: Q01DX009 (ip), vehicle: saline
# [9] = dose: 200.0 mg/kg/injection, schedule: Q01DX009 (ip), vehicle: saline
# [10] = dose: 400.0 mg/kg/injection, schedule: Q01DX009 (ip), vehicle: saline
smiles,measurement,setting,value
CN(C)CCCNc1nc(NCCCN(C)C)c2nc(-c3ccccc3)c(-c3ccccc3)nc2n1,survivor count,[1],2 of 5
same,survivor count,[2],0 of 5
Nc1ncc(Cl)c2ccccc12,survivor count,"dose: 12.5 mg/kg/injection, schedule: Q01DX005 (ip), vehicle: saline with Tween-80",3 of 5
same,survivor count,"dose: 50.0 mg/kg/injection, schedule: Q01DX005 (ip), vehicle: saline with Tween-80",5 of 5
COc1ccc(Cc2c3cc(OC)c(OC)cc3cc[n+]2C)cc1OC,survivor count,"dose: 50.0 mg/kg/injection, schedule: Q04DX003 (ip), vehicle: saline with Tween-80",6 of 6
same,survivor count,[3],0 of 6
same,survivor count,[4],1 of 6
CCC(CC)c1ccccn1,survivor count,"dose: 400.0 mg/kg/injection, schedule: Q01DX009 (ip), vehicle: carboxymethylcellulose (CMC)",2 of 6
CCN(CC)CCCC(C)NC/C=C/CNC(C)CCCN(CC)CC (centres undefined),survivor count,"dose: 6.25 mg/kg/injection, schedule: Q01DX009 (ip), vehicle: water",6 of 6
CC(C)(C)OC(=O)NC(CC(Cc1ccccc1)C(=O)O)C(=O)NC(CC(Cc1ccccc1)C(=O)O)C(=O)NC(CC(Cc1ccccc1)C(=O)O)C(=O)NCC(=O)Oc1ccc([N+](=O)[O-])cc1 (centres undefined),survivor count,[1],5 of 5
Nc1ccc(OCCCCNC(=O)c2ccc(S(=O)(=O)F)cc2)c(Cl)c1,survivor count,"dose: 3.12 mg/kg/injection, schedule: Q01DX009 (ip), vehicle: saline with Tween-80",6 of 6
same,survivor count,"dose: 6.25 mg/kg/injection, schedule: Q01DX009 (ip), vehicle: saline with Tween-80",6 of 6
same,survivor count,"dose: 12.5 mg/kg/injection, schedule: Q01DX009 (ip), vehicle: saline with Tween-80",6 of 6
same,survivor count,[5],3 of 6
O=S(=O)(O)O.[NH-]CC(N)=O.[NH-]CC(N)=O.[Ni+2],survivor count,"dose: 25.0 mg/kg/injection, schedule: Q01DX009 (ip), vehicle: water",6 of 6
same,survivor count,"dose: 50.0 mg/kg/injection, schedule: Q01DX009 (ip), vehicle: water",4 of 6
same,survivor count,"dose: 100.0 mg/kg/injection, schedule: Q04DX003 (ip), vehicle: water",2 of 6
CN=c1ccc2nc3ccc(N)cc3sc-2c1,survivor count,[1],1 of 5
same,survivor count,[2],0 of 5
CC(=O)c1ccccc1C(C)C,survivor count,"dose: 225.0 mg/kg/injection, schedule: Q01DX009 (ip), vehicle: saline",3 of 6
same,survivor count,"dose: 340.0 mg/kg/injection, schedule: Q01DX009 (ip), vehicle: saline",0 of 6
CCOC(=O)c1cc(C(=O)OCC)c(C#N)c(=O)[nH]1,survivor count,[6],6 of 6
COCc1ccc([N+](=O)[O-])cc1,survivor count,"dose: 200.0 mg/kg/injection, schedule: Q01DX001 (ip), vehicle: saline with Tween-80",6 of 6
same,survivor count,"dose: 400.0 mg/kg/injection, schedule: Q01DX001 (ip), vehicle: saline with Tween-80",6 of 6
Nc1ccc2cc(Cl)ccc2c1,T/C,"dose: 25.0 mg/kg/injection, schedule: Q01DX009 (ip), vehicle: saline with Tween-80",136 % of control
same,T/C,[7],131 % of control
CCCCCn1c(Cl)c(/C=N\Nc2ccc([N+](=O)[O-])cc2)c2ccccc21,survivor count,"dose: 100.0 mg/kg/injection, schedule: Q01DX001 (ip), vehicle: Klucel (hydroxypropylcellulose) (HPC)",5 of 6
same,survivor count,"dose: 200.0 mg/kg/injection, schedule: Q01DX001 (ip), vehicle: Klucel (hydroxypropylcellulose) (HPC)",4 of 6
same,survivor count,"dose: 400.0 mg/kg/injection, schedule: Q01DX001 (ip), vehicle: Klucel (hydroxypropylcellulose) (HPC)",4 of 6
COc1cc(-c2ccc(Nc3ccccc3C(=O)O)c(OC)c2)ccc1N,T/C,[7],127 and 142 % of control
same,survivor count,[3],5 of 6
Cc1ccc(S(=O)(=O)NC(=O)C2C(=O)CC3(CCCCC3)CC2=O)cc1,T/C,[6],125 % of control
CS(=O)(=O)Nc1ccc(C(=O)CCN2CCCCCC2)cc1,T/C,[8],130 and 143 % of control
same,survivor count,[9],1 of 6 and 2 of 6
Nc1nc(=S)c2ncn(C3OC(CO)CC3O)c2[nH]1 (centres undefined),survivor count,[9],5 of 6
same,survivor count,[10],3 of 6
CCC(C)C1NC(=O)C2CCCN2C(=O)C(CC(C)C)OC(=O)CCNC(=O)C(C)N(C)C(=O)C(C(C)C)N(C)C1=O (centres undefined) (cyclo([ξLac(3-iPr)]PI[NMeV][NMeA][βAla]); configuration not given here),T/C,"dose: 1.25 mg/kg/injection, schedule: Q01DX009 (ip), vehicle: saline",125 % of control
CC1(C)O[C@]2(C)CC[C@@H]1[C@H](O)[C@@H]2N1CCCC1,survivor count,[2],0 of 5
Cc1cc(C)c(N)c(Br)c1,survivor count,"dose: 200.0 mg/kg/injection, schedule: Q04DX003 (ip), vehicle: other",1 of 6
same,survivor count,"dose: 400.0 mg/kg/injection, schedule: Q04DX003 (ip), vehicle: other",0 of 6
COc1cc2c(cc1O)C(=O)CCCC2,T/C,[3],135 % of control
CCOP(=S)(N1CC1C)N1CC1C (centres undefined),T/C,"dose: 66.0 mg/kg/injection, schedule: Q01DX007 (ip), vehicle: saline with Tween-80",131 % of control
same,T/C,"dose: 100.0 mg/kg/injection, schedule: Q04DX003 (ip), vehicle: saline with Tween-80",133 % of control
same,T/C,[4],125 % of control
same,survivor count,[5],6 of 6
COC(=O)C1C(O)C(C)C(O)OC1C(C)C(O)C(C)/C=C\C=C(/C)C(=O)Nc1c(C)c(OC(C)=O)c2c(c1O)C(=O)C(C)=C1OCOC(/C(C)=C/C(C)=O)=C12 (centres undefined),T/C,"dose: 50.0 mg/kg/injection, schedule: Q01DX009 (ip), vehicle: Klucel (hydroxypropylcellulose) (HPC)",142 % of control
same,T/C,"dose: 100.0 mg/kg/injection, schedule: Q01DX009 (ip), vehicle: Klucel (hydroxypropylcellulose) (HPC)",142 % of control
same,survivor count,"dose: 150.0 mg/kg/injection, schedule: Q01DX009 (ip), vehicle: Klucel (hydroxypropylcellulose) (HPC)",0 of 6
same,survivor count,[6],5 of 6
same,survivor count,"dose: 250.0 mg/kg/injection, schedule: Q01DX009 (ip), vehicle: Klucel (hydroxypropylcellulose) (HPC)",0 of 6
CCCSc1ncnc2nc[nH]c12,survivor count,"dose: 250.0 mg/kg/injection, schedule: Q01DX010 (ip), vehicle: saline",5 of 6
NC(=O)c1cn(C2OC(CO)C(O)C2O)c2ncn3ccnc3c12 (centres undefined),T/C,"dose: 12.5 mg/kg/injection, schedule: Q04DX003 (ip), vehicle: saline",126 % of control
same,T/C,"dose: 50.0 mg/kg/injection, schedule: Q04DX003 (ip), vehicle: saline",128 % of control
CCC[N+](CCC)(CCC)CCC.N#CN=C([SH2+])[SH2+].N#CN=C([SH2+])[SH2+].[Pt+2],survivor count,"dose: 100.0 mg/kg/injection, schedule: Q04DX003 (ip), vehicle: saline",1 of 6
same,survivor count,"dose: 200.0 mg/kg/injection, schedule: Q04DX003 (ip), vehicle: saline",5 of 6
Nc1ccc2c(-c3ccccc3)cc(NCCCN3CCOCC3)nc2n1,survivor count,"dose: 400.0 mg/kg/injection, schedule: Q04DX003 (ip), vehicle: saline",6 of 6
c1ccc(C2CCCCCC2)cc1,T/C,"dose: 66.0 mg/kg/injection, schedule: Q01DX009 (ip), vehicle: saline",145 % of control
same,T/C,[8],130 % of control
same,survivor count,[10],6 of 6
COc1ccc(-c2cc(=O)c3c(O)c(OC)c(O)cc3o2)cc1,survivor count,"dose: 40.0 mg/kg/injection, schedule: Q01DX010 (ip), vehicle: carboxymethylcellulose (CMC)",4 of 4
NC(=S)N/N=C/C=C/c1ccccc1,survivor count,"dose: 200.0 mg/kg/injection, schedule: Q04DX002 (ip), vehicle: Klucel (hydroxypropylcellulose) (HPC)",0 of 6
same,survivor count,"dose: 400.0 mg/kg/injection, schedule: Q04DX002 (ip), vehicle: Klucel (hydroxypropylcellulose) (HPC)",0 of 6
COc1cccc2c1C(=O)c1c(O)c3c(c(O)c1C2=O)C[C@@](O)(/C(C)=N/NC(=O)c1ccc(N(C)C)cc1)C[C@@H]3OC1CC(N)C(O)C(C)O1 (some centres undefined),T/C,"dose: 0.25 mg/kg/injection, schedule: Q01DX009 (ip), vehicle: water",127 % of control
same,T/C,"dose: 4.0 mg/kg/injection, schedule: Q01DX009 (ip), vehicle: water",137 % of control
